Reference: US20040013674A1 (APOXIS, published 2004)
No constants are given. Whether binding was seen depends on the method and setting. Binding seen in cells or lysates may run through a third protein. Some entries that bind do so weakly or less than the wild type. Tags and fused reporters may be left off the sequences shown.

Sequences of proteins named here, by UniProt entry; tags and fusion partners are left off. A change or cut given only in a name is not applied to a line headed by its entry.
UniProt Q9D777: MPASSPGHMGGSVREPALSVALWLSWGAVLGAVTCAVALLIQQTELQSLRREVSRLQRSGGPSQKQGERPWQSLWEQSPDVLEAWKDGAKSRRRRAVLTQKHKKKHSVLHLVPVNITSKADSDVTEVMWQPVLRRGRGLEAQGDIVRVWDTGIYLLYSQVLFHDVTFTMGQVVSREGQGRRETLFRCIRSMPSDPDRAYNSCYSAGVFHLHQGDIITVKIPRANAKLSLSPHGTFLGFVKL

Experiments:
[1] = target: FLAG-tagged soluble extracellular domain of murine APRIL (plasmid PS784, also called LT032) (murine) (UniProt Q9D777); assay: co-immunoprecipitation on protein A-Sepharose, anti-FLAG M2 Western blot
[2] = target: FLAG-tagged soluble extracellular domain of murine APRIL (plasmid PS784, also called LT032) (murine) (UniProt Q9D777); assay: co-immunoprecipitation on protein A-Sepharose, anti-FLAG Western blot

B1: human TACI(1-160)-Ig fusion protein (plasmid PS882) (Fc fusion)
chain: MSGLGRSRRGGRSRVDQEERFPQGLWTGVAMRSCPEEQYWDPLLGTCMSCKTICNHQSQRTCAAFCRSLSCRKEQGKFYDHLLRDCISCASICGQHPKQCAYFCENKLRSPVNLPPELRRQRSGEVENNSDNSGRYQGLEHRGSEASPALPGLKLSADQV
notes: Used as conditioned medium (Optimem) of 293 cells; also called hTACI(1-160)-Ig; soluble hTACI(1-160)-Ig; not shown: human IgG Fc
- binding [1]: binds
- binding [2]: binds
